The other results are listed elsewhere or left out.
Key:
Assay in all cases: glycan array binding signal (z-score within array); higher = stronger binding
Details in all cases: glycan notation: IUPAC condensed, linker removed
[1] = target: Neu5Ac(a2-3)Gal(b1-3)GlcNAc(b1-6)GalNAc
Summary of the method: (§1)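 Glycan array binding is given as a within-array Z-score, which can be read as non-binding when negative. The arrays, 3228 of them, came from the Consortium for Functional Glycomics database and were retained only where the protein sequence was available. Z-scores were averaged across arrays of the same protein sequence at different concentrations or buffers and across linkers.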

[2] = target: Neu5Ac(a2-3)Gal(b1-3)GlcNAc6S
Summary of the method: as §1

[3] = target: Neu5Ac(a2-3)Gal(b1-3)[Fuc(a1-4)]GlcNAc
Summary of the method: as §1

[4] = target: Neu5Ac(a2-3)Gal(b1-3)[Fuc(a1-4)]GlcNAc(b1-3)Gal(b1-3)[Fuc(a1-4)]GlcNAc
Summary of the method: as §1

[5] = target: Neu5Ac(a2-3)Gal(b1-3)[Fuc(a1-4)]GlcNAc(b1-3)Gal(b1-4)[Fuc(a1-3)]GlcNAc
Summary of the method: as §1

[6] = target: Neu5Ac(a2-3)Gal(b1-3)[GlcNAc(b1-6)]GalNAc
Summary of the method: as §1

[7] = target: Neu5Ac(a2-3)Gal(b1-3)[Neu5Ac(a2-6)]GalNAc
Summary of the method: as §1

[8] = target: Neu5Ac(a2-3)Gal(b1-3)[Neu5Ac(a2-6)]GlcNAc(b1-3)[Fuc(a1-3)[Gal(b1-4)]GlcNAc(b1-6)]Gal(b1-4)Glc
Summary of the method: as §1

[9] = target: Neu5Ac(a2-3)Gal(b1-3)]Neu5Ac(a2-3)Gal(b1-4)]GlcNAc
Summary of the method: as §1

Neu5Ac(a2-3)Gal(b1-4)Glc = target: Neu5Ac(a2-3)Gal(b1-4)Glc
Summary of the method: as §1

[10] = target: Neu5Ac(a2-3)Gal(b1-4)GlcNAc
Summary of the method: as §1

[11] = target: Neu5Ac(a2-3)Gal(b1-4)GlcNAc(b1-2)Man
Summary of the method: as §1

[12] = target: Neu5Ac(a2-3)Gal(b1-4)GlcNAc(b1-2)Man(a1-3)[GlcNAc(b1-4)][Neu5Ac(a2-3)Gal(b1-4)GlcNAc(b1-2)Man(a1-6)]Man(b1-4)GlcNAc(b1-4)GlcNAc
Summary of the method: as §1

[13] = target: Neu5Ac(a2-3)Gal(b1-4)GlcNAc(b1-2)Man(a1-3)[Neu5Ac(a2-3)Gal(b1-4)GlcNAc(b1-2)Man(a1-6)]Man(b1-4)GlcNAc(b1-4)GlcNAc
Summary of the method: as §1

[14] = target: Neu5Ac(a2-3)Gal(b1-4)GlcNAc(b1-2)Man(a1-3)[Neu5Ac(a2-3)Gal(b1-4)GlcNAc(b1-2)Man(a1-6)]Man(b1-4)GlcNAc(b1-4)[Fuc(a1-6)]GlcNAc
Summary of the method: as §1

[15] = target: Neu5Ac(a2-3)Gal(b1-4)GlcNAc(b1-2)Man(a1-3)[Neu5Ac(a2-6)Gal(b1-4)GlcNAc(b1-2)Man(a1-6)]Man(b1-4)GlcNAc(b1-4)GlcNAc
Summary of the method: as §1

[16] = target: Neu5Ac(a2-3)Gal(b1-4)GlcNAc(b1-2)[Neu5Ac(a2-3)Gal(b1-4)GlcNAc(b1-4)]Man(a1-3)[GlcNAc(b1-4)][Neu5Ac(a2-3)Gal(b1-4)GlcNAc(b1-2)[Neu5Ac(a2-3)Gal(b1-4)GlcNAc(b1-6)]Man(a1-6)]Man(b1-4)GlcNAc(b1-4)GlcNAc
Summary of the method: as §1

[17] = target: Neu5Ac(a2-3)Gal(b1-4)GlcNAc(b1-2)[Neu5Ac(a2-3)Gal(b1-4)GlcNAc(b1-4)]Man(a1-3)[GlcNAc(b1-4)][Neu5Ac(a2-3)Gal(b1-4)GlcNAc(b1-4)Man(a1-6)]Man(b1-4)GlcNAc(b1-4)GlcNAc
Summary of the method: as §1

[18] = target: Neu5Ac(a2-3)Gal(b1-4)GlcNAc(b1-2)[Neu5Ac(a2-3)Gal(b1-4)GlcNAc(b1-6)]Man(a1-6)[Neu5Ac(a2-3)Gal(b1-4)GlcNAc(b1-2)Man(a1-3)][GlcNAc(b1-4)]Man(b1-4)GlcNAc(b1-4)GlcNAc
Summary of the method: as §1

[19] = target: Neu5Ac(a2-3)Gal(b1-4)GlcNAc(b1-3)Gal
Summary of the method: as §1

[20] = target: Neu5Ac(a2-3)Gal(b1-4)GlcNAc(b1-3)Gal(b1-3)GlcNAc
Summary of the method: as §1

[21] = target: Neu5Ac(a2-3)Gal(b1-4)GlcNAc(b1-3)Gal(b1-4)GlcNAc
Summary of the method: as §1

[22] = target: Neu5Ac(a2-3)Gal(b1-4)GlcNAc(b1-3)Gal(b1-4)GlcNAc(b1-2)Man(a1-3)[Neu5Ac(a2-3)Gal(b1-4)GlcNAc(b1-3)Gal(b1-4)GlcNAc(b1-2)Man(a1-6)]Man(b1-4)GlcNAc(b1-4)GlcNAc
Summary of the method: as §1

[23] = target: Neu5Ac(a2-3)Gal(b1-4)GlcNAc(b1-3)Gal(b1-4)GlcNAc(b1-3)Gal(b1-4)GlcNAc
Summary of the method: as §1

[24] = target: Neu5Ac(a2-3)Gal(b1-4)GlcNAc(b1-3)Gal(b1-4)GlcNAc(b1-3)Gal(b1-4)GlcNAc(b1-2)Man(a1-3)[Neu5Ac(a2-3)Gal(b1-4)GlcNAc(b1-3)Gal(b1-4)GlcNAc(b1-3)Gal(b1-4)GlcNAc(b1-2)Man(a1-6)]GalNAc
Summary of the method: as §1

[25] = target: Neu5Ac(a2-3)Gal(b1-4)GlcNAc(b1-3)Gal(b1-4)GlcNAc(b1-3)GalNAc
Summary of the method: as §1

[26] = target: Neu5Ac(a2-3)Gal(b1-4)GlcNAc(b1-3)Gal(b1-4)GlcNAc(b1-3)[Neu5Ac(a2-3)Gal(b1-4)GlcNAc(b1-3)Gal(b1-4)GlcNAc(b1-6)]GalNAc
Summary of the method: as §1

[27] = target: Neu5Ac(a2-3)Gal(b1-4)GlcNAc(b1-3)Gal(b1-4)GlcNAc(b1-6)[Gal(b1-3)]GalNAc
Summary of the method: as §1

[28] = target: Neu5Ac(a2-3)Gal(b1-4)GlcNAc(b1-3)Gal(b1-4)[Fuc(a1-3)]GlcNAc
Summary of the method: as §1

[29] = target: Neu5Ac(a2-3)Gal(b1-4)GlcNAc(b1-3)GalNAc
Summary of the method: as §1

[30] = target: Neu5Ac(a2-3)Gal(b1-4)GlcNAc(b1-3)[Neu5Ac(a2-3)Gal(b1-4)GlcNAc(b1-6)]GalNAc
Summary of the method: as §1

[31] = target: Neu5Ac(a2-3)Gal(b1-4)GlcNAc(b1-6)GalNAc
Summary of the method: as §1

[32] = target: Neu5Ac(a2-3)Gal(b1-4)GlcNAc(b1-6)[Gal(b1-3)]GalNAc
Summary of the method: as §1

[33] = target: Neu5Ac(a2-3)Gal(b1-4)GlcNAc(b1-6)[Neu5Ac(a2-3)Gal(b1-3)]GalNAc
Summary of the method: as §1

[34] = target: Neu5Ac(a2-3)Gal(b1-4)GlcNAc6S
Summary of the method: as §1

[35] = target: Neu5Ac(a2-3)Gal(b1-4)[Fuc(a1-3)]GlcNAc
Summary of the method: as §1

[36] = target: Neu5Ac(a2-3)Gal(b1-4)[Fuc(a1-3)]GlcNAc(b1-2)Man
Summary of the method: as §1

[37] = target: Neu5Ac(a2-3)Gal(b1-4)[Fuc(a1-3)]GlcNAc(b1-3)Gal
Summary of the method: as §1

[38] = target: Neu5Ac(a2-3)Gal(b1-4)[Fuc(a1-3)]GlcNAc(b1-3)Gal(b1-4)GlcNAc
Summary of the method: as §1

[39] = target: Neu5Ac(a2-3)Gal(b1-4)[Fuc(a1-3)]GlcNAc(b1-3)Gal(b1-4)[Fuc(a1-3)]GlcNAc(b1-3)Gal(b1-4)[Fuc(a1-3)]GlcNAc
Summary of the method: as §1

[40] = target: Neu5Ac(a2-3)Gal(b1-4)[Fuc(a1-3)]GlcNAc(b1-3)GalNAc
Summary of the method: as §1

[41] = target: Neu5Ac(a2-3)Gal(b1-4)[Fuc(a1-3)]GlcNAc(b1-6)[Gal(b1-3)]GalNAc
Summary of the method: as §1

[42] = target: Neu5Ac(a2-3)Gal(b1-4)[Fuc(a1-3)]GlcNAc(b1-6)[Neu5Ac(a2-3)Gal(b1-3)]GalNAc
Summary of the method: as §1

[43] = target: Neu5Ac(a2-3)Gal(b1-4)[Fuc(a1-3)]GlcNAc6S
Summary of the method: as §1

[44] = target: Neu5Ac(a2-3)Gal6S(b1-4)GlcNAc
Summary of the method: as §1

B1: XTP3-B-MRH1 (Homo sapiens), Q96DZ1 (protein)
chain: LLEPLFKQSSCSYRIESYWTYEVCHGKHIRQYHEEKETGQKINIHEYYLGNMLAKNLLFEKEREAEEKEKSNEIPTKNIEGQMTPYYPVGMGNGTPCSLKQNRPRSSTVMYICHPESKHEILSVAEVTTCEYEVVILTPLLCSHPKYRFRA
glycan array binding signal (z-score) [1]: -0.811
glycan array binding signal (z-score) [2]: -0.101
glycan array binding signal (z-score) [3]: 1.37
glycan array binding signal (z-score) [4]: -0.938
glycan array binding signal (z-score) [5]: -0.343
glycan array binding signal (z-score) [6]: -1.47
glycan array binding signal (z-score) [7]: 0.385
glycan array binding signal (z-score) [8]: -0.365
glycan array binding signal (z-score) [9]: -0.364
glycan array binding signal (z-score) (Neu5Ac(a2-3)Gal(b1-4)Glc): 1.58
glycan array binding signal (z-score) [10]: 0.725
glycan array binding signal (z-score) [11]: 1.7
glycan array binding signal (z-score) [12]: -0.155
glycan array binding signal (z-score) [13]: 0.155
glycan array binding signal (z-score) [14]: 0.021
glycan array binding signal (z-score) [15]: -0.2
glycan array binding signal (z-score) [16]: 0.532
glycan array binding signal (z-score) [17]: 0.489
glycan array binding signal (z-score) [18]: -1.57
glycan array binding signal (z-score) [19]: -1.01
glycan array binding signal (z-score) [20]: 0.736
glycan array binding signal (z-score) [21]: -1.44
glycan array binding signal (z-score) [22]: -0.403
glycan array binding signal (z-score) [23]: -0.612
glycan array binding signal (z-score) [24]: 1.63
glycan array binding signal (z-score) [25]: 3.41
glycan array binding signal (z-score) [26]: 0.67
glycan array binding signal (z-score) [27]: 0.566
glycan array binding signal (z-score) [28]: -0.425
glycan array binding signal (z-score) [29]: -0.349
glycan array binding signal (z-score) [30]: 0.882
glycan array binding signal (z-score) [31]: -1.22
glycan array binding signal (z-score) [32]: 0.048
glycan array binding signal (z-score) [33]: 0.576
glycan array binding signal (z-score) [34]: 1.4
glycan array binding signal (z-score) [35]: -0.083
glycan array binding signal (z-score) [36]: -1.1
glycan array binding signal (z-score) [37]: 0.417
glycan array binding signal (z-score) [38]: 1.37
glycan array binding signal (z-score) [39]: -0.381
glycan array binding signal (z-score) [40]: 2.68
glycan array binding signal (z-score) [41]: -0.365
glycan array binding signal (z-score) [42]: 1.34
glycan array binding signal (z-score) [43]: -0.16
glycan array binding signal (z-score) [44]: 0.185

— the supplement of paper PMC8728848
